The results in this text go back to US20100150902A1.

Chains of the proteins cited; added tags and fusions are not shown. Residues count along the entry.
UniProt P48509, residues 130-221: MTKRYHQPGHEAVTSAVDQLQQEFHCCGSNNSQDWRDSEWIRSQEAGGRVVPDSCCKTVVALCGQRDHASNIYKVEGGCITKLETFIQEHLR

In assay [1] the target is recombinant extracellular loop EC2 of human CD151 (amino acids 130 to 221, C-terminal Poly-His tail) (human) (UniProt P48509). Kind of assay: Western blot, recombinant CD151 EC2 protein, non-reductive conditions, antibody 0.5 µg/ml. (In general: A western blot detects proteins with antibodies after separation by electrophoresis.)
For assay [2] the target is unchanged. The assay is described as follows: Western blot, purified recombinant EC2, non reducing conditions, antibody 0.5 µg/ml.

Results are given in words; binding and its absence hold for the method and conditions named. Some entries that bind do so weakly or less than the wild type.

B1: murine monoclonal antibody 203B6 (hybridoma CNCM I-3920) (antibody, mouse IgG1, V domains shown)
VH: EVKLVESGGGLVQPGGSLKLSCAASGFTFSTYTMSWVRQTPEKRLEWVAYISSGGGTTYYPDTVKGRFTISRDNARNTLYLQMNSLKSEDTAMYYCATPRIGTGFAYWGQGTLVTVSA
VL: DIVLSQSPASLALSLGQRATISCRASASVEYYGTSLMHWYQQKPGQPPKLLIYEASNVESGVPARFSGSGSGTDFSLNIHPVEEDDLAIYFCQQSRKAPYTFGGGTKLEIK
In the case of B1, in assay [1], the binding entry is “binds”.

B2: chimeric antibody c203B6[IgG1] (antibody, V domains shown)
VH: EVKLVESGGGLVQPGGSLKLSCAASGFTFSTYTMSWVRQTPEKRLEWVAYISSGGGTTYYPDTVKGRFTISRDNARNTLYLQMNSLKSEDTAMYYCATPRIGTGFAYWGQGTLVTVSA
VL: DIVLSQSPASLALSLGQRATISCRASASVEYYGTSLMHWYQQKPGQPPKLLIYEASNVESGVPARFSGSGSGTDFSLNIHPVEEDDLAIYFCQQSRKAPYTFGGGTKLEIKR
With B2, in assay [2], the binding result is on record as “binds”.

B3: murine monoclonal antibody 211F3 (hybridoma CNCM I-3918) (antibody, mouse IgG1, V domains shown)
VH: EVKLVESGGDLVQPGGSLKLSCAASGFTFSTYTMSWVRQTPEKRLEWVAYISSGGVTTYYPDTIKGRFTISRDNAKNTLFLQMNSLKSEDTAMYYCTSPRTGTGFAYWGQGTLVTVSA
VL: DIVLTQSPASLALSLGQRATISCRASASVDYYGTSLMQWYQQKPGQPPKLLIYEASNVESGVPARFSGSGSGTDFSLNIHPVEEDDLAIYFCQQSRKAPYTFGGGTKLEIK
Consider B3, for which the binding entry in assay [1] is reported as “binds”.

B4: murine monoclonal antibody 214B2 (hybridoma CNCM I-3919) (antibody, mouse IgG1, V domains shown)
VH: QVQLQQPGSVLVRPGASVKLSCKASGYTFTSSSMHWAKQRPGQGLEWIGEIHPNSGNTNNNEKFKGKATLTVDTSSSTAYVDLSSLSSEDSAVYYCARARSFYYAMDCWGQGTSVTVSS
VL: NIVMTQSPKSMSMSVGERVTLSCKASENVGTYVSWYQQKPEQSPKLLIYGASNRYTGVPDRFTGSGSATDFTLTISSVQAEDLADYHCGQTYSFPYTFGGGTKLEIK
For B4, the binding entry in assay [1] was “binds”.

B5: chimeric antibody c214B2[IgG1] (antibody, V domains shown)
VH: QVQLQQPGSVLVRPGASVKLSCKASGYTFTSSSMHWAKQRPGQGLEWIGEIHPNSGNTNNNEKFKGKATLTVDTSSSTAYVDLSSLSSEDSAVYYCARARSFYYAMDCWGQGTSVTVSS
VL: NIVMTQSPKSMSMSVGERVTLSCKASENVGTYVSWYQQKPEQSPKLLIYGASNRYTGVPDRFTGSGSATDFTLTISSVQAEDLADYHCGQTYSFPYTFGGGTKLEIKR
In the case of B5, in assay [2], the binding entry is on record as “binds”.
